Patent publication US20080317674A1, “Method and Reagent for Measuring Nitroreductase Enzyme Activity” (priority 2004, published 2008)
For at least one compound, name, drawing or mass did not settle the structure.

Chains of the proteins cited; added tags and fusions are not shown. Lines headed by an entry give the natural chain unless they say otherwise; changes in a name come on top.
UniProt P38489: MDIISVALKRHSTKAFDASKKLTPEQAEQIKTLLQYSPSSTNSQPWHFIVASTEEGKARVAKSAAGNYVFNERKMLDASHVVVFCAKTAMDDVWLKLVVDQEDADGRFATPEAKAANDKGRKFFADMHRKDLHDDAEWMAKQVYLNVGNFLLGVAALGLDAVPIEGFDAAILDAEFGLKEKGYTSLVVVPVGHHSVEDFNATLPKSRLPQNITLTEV

Columns and labels:
Type in all cases: cell-based
nitroreductase (NTR) = target: T1, nitroreductase (NTR) (Escherichia coli, UniProt P38489); assay: Nitroreductase gene reporter assay (adenoviral NF-κB NTR reporter, HeLa cells)
T1 construct: expressed in transfected cells
Description: A reporter construct containing the NF-κB response element upstream of the NTR gene was constructed in pDC511 (Admax™). The reporter was packaged with AdS genomic DNA in helper cells, HEK293, and replication incompetent Adenovirus rescued.
HeLa cells were subcultured for twenty-four hours prior to viral transduction and incubated overnight at 37° C. in a humidified atmosphere of 5% CO2 in Dulbecco's Modified Eagles medium containing 10% foetal calf serum +2 mM L-glutamine. After the overnight incubation, the cells were detached from each flask with trypsin, pooled to produce a suspension of cells and the cell concentration determined. The HeLa cell suspension was mixed with virus at a predetermined multiplicity of infection (MOI) in a sufficient minimal volume of complete medium to cover the base of a tissue culture flask; typically 15 ml for 10^6 cells in a T75 cm^2 Costar flask. The cell/virus suspension was returned to the incubator and left overnight at 37° C. in a humidified atmosphere of 5% CO2. […] The cells were detached with trypsin and pooled to produce a suspension of transduced cells; the concentration of the cell suspension was determined and adjusted to 5.0×10^4 cells per ml. […] The fluorescence signal was monitored over time by means of a Tecan “Ultra” fluorimeter. All substrates were measured under identical conditions to avoid instrument artefacts. […]

HeLa cells = assay: Localisation of Compound (2) in HeLa cells (confocal microscopy); conditions: 1 μM dye in serum free medium, 2 hours, Zeiss confocal microscope
nitroreductase = target: T2, nitroreductase (Escherichia coli, UniProt P38489); assay: Live cell NTR assays, signal retention after fixation of cells; conditions: live cell NTR assay, cells fixed
T2 construct: expressed in transfected cells
Excerpt: Further examples of the utility of nitro-substituted squaraine dyes (Compounds (2), (3) and (4)) as nitroreductase substrates are shown in live cell NTR assays, FIG. 5.

SMILES | detection of basal transcriptional activity (nitroreductase (NTR); control sample cells containing the reporter, no agonist, vs mock transduced cells) | assay signal compared to Compound (1) (nitroreductase (NTR); in the presence of the agonist TNF-α, HeLa cells, NF-κB NTR reporter) | uptake and distribution in cells (sequestration to organelles) (HeLa cells) | decrease in signal following fixation (nitroreductase)
CC1(C)C(/C=C2/C(=O)C(/C=C3\N(CCCCCC(=O)O)c4ccccc4C3(C)C)=C2[O-])=[N+](Cc2cc([N+](=O)[O-])cc([N+](=O)[O-])c2)c2ccccc21 [Compound (2), 2-(1-(5-carboxypentyl)-3,3-dimethyl-2-indolinylidenemethyl)-4-(1-(3,5-dinitrobenzyl)-3,3-dimethyl-2-indolinylidenemethyl)cyclobutenediylium-1,3-diolate] | capable of detecting basal transcriptional activity | significant increase in assay signal | no evidence to indicate that Compound (2) was sequestered to organelles | very little decrease in signal
CC1(C)C(/C=C2/C(=O)C(/C=C3\N(CCCCCC(=O)O)c4ccc5ccccc5c4C3(C)C)=C2[O-])=[N+](Cc2cc([N+](=O)[O-])cc([N+](=O)[O-])c2)c2ccccc21 [Compound (3), 2-(1-(5-carboxypentyl)-3,3-dimethyl-2-benzindolinylidenemethyl)-4-(1-(3,5-dinitrobenzyl)-3,3-dimethyl-2-indolinylidenemethyl)cyclobutenediylium-1,3-diolate] | – | – | – | very little decrease in signal
